The subject of this assay is BDF1 mice, B16 melanoma s.c., survival/tumor T/C. Briefly: NCI In Vivo Anticancer Drug Screen. Data for tumor model B16 Melanoma (subcutaneous) in B6D2F1 (BDF1) mice. As to the method: The antitumor activity of compounds was measured in mice bearing transplantable tumors. Survival or tumor size were measured and the results are expressed as the measurement made in the treated group (T) divided by the measurement made in the vehicle treated control group (C). The tumor model used in this assay is B16 Melanoma (subcutaneous) in B6D2F1 (BDF1) mice

Setting [1] is: T/C endpoint: median survival time, dose: 25.0 mg/kg/injection, schedule: Q02DX009 (ip), vehicle: Klucel (hydroxypropylcellulose) (HPC), higher T/C = longer survival.
The mark [2] stands for this setting: T/C endpoint: median survival time, dose: 2.0 mg/kg/injection, schedule: Q01DX009 (ip), vehicle: saline, higher T/C = longer survival.
The mark [3] stands for this setting: T/C endpoint: median survival time, dose: 25.0 mg/kg/injection, schedule: Q01DX009 (ip), vehicle: saline, higher T/C = longer survival.
Where [4] appears, read: T/C endpoint: median survival time, dose: 100.0 mg/kg/injection, schedule: Q01DX009 (ip), vehicle: saline, higher T/C = longer survival.
Where [5] appears, read: T/C endpoint: median survival time, dose: 200.0 mg/kg/injection, schedule: Q01DX009 (ip), vehicle: saline, higher T/C = longer survival.

Molecules are shown by their SMILES. The list does not hold the whole screen: it gathers tests that were run many times, whatever their T/C, doses with no T/C, and many T/C values between a quarter and a half above the control. Further doses and runs are listed elsewhere. T/C is the treated group as % of the vehicle group. Some entries give survivors of the animals treated and no T/C: the source files T/C as zero there, which appears to mark a toxic dose or a test without result, not a measured value. Some doses without a T/C left all or most animals alive at the check, yet need not have been tolerated: survival well below the control is almost never listed, so the zero probably covers shortened survival too. Survivors were counted at the toxicity check, usually on the fifth day, unless a day is given; later deaths do not show. Schedule codes are those of the source, taken here to give the interval after Q, in days (D) or hours (H), and the number of doses after X. Some entries were tested several times; their values stand side by side, smallest first. Where survival is the endpoint, this PubChem deposit counts one and a half times the control or more as active, and values a quarter to a half above the control carry no call in these data; other NCI protocols may use other cut-offs. Some T/C values carry the count of animals alive at the toxicity check (mostly the fifth day); where none is given, no animal had died by that day. Marks such as (2×) say how often a value occurs here.

Regarding `Nc1c(Cl)c(Cl)nc(C(=O)O)c1Cl`, the survivor count by setting is: (T/C endpoint: median survival time, dose: 12.5 mg/kg/injection, schedule: Q02DX009 (ip), vehicle: Klucel (hydroxypropylcellulose) (HPC), higher T/C = longer survival) 10 of 10; under setting [1], 10 of 10; (T/C endpoint: median survival time, dose: 400.0 mg/kg/injection, schedule: Q02DX009 (ip), vehicle: Klucel (hydroxypropylcellulose) (HPC), higher T/C = longer survival) 3 of 10. For the same compound, the T/C under setting [1] was 141 % of control.

Consider `ClC1=NC(Cl)C(Cl)=N/C1=N\c1ncn[nH]1` (configuration not stated), for which the T/C (T/C endpoint: median survival time, dose: 8.0 mg/kg/injection, schedule: Q01DX009 (ip), vehicle: water, higher T/C = longer survival) was 129 % of control. Also, the survivor count is, setting by setting: (T/C endpoint: median survival time, dose: 32.0 mg/kg/injection, schedule: Q01DX009 (ip), vehicle: Klucel (hydroxypropylcellulose) (HPC), higher T/C = longer survival) 10 of 10; (T/C endpoint: median survival time, dose: 64.0 mg/kg/injection, schedule: Q01DX009 (ip), vehicle: Klucel (hydroxypropylcellulose) (HPC), higher T/C = longer survival) 7 of 10; (T/C endpoint: median survival time, dose: 64.0 mg/kg/injection, schedule: Q01DX009 (ip), vehicle: water, higher T/C = longer survival) 3 of 8; (T/C endpoint: median survival time, dose: 128.0 mg/kg/injection, schedule: Q01DX009 (ip), vehicle: water, higher T/C = longer survival) 0 of 8.

Take `COc1cccc2c1C(=O)c1c(O)c3c(c(O)c1C2=O)C[C@@](O)(C(=O)CO)C[C@@H]3OC1CC(N)C(O)C(C)O1` (some centres not stated): the T/C reads like this: (T/C endpoint: median survival time, dose: 0.25 mg/kg/injection, schedule: Q01DX009 (ip), vehicle: saline, higher T/C = longer survival) 98 (2×), 103, 112, 121 % of control [9 of 10 alive]; (T/C endpoint: median survival time, dose: 0.5 mg/kg/injection, schedule: Q01DX009 (ip), vehicle: saline, higher T/C = longer survival) 104, 116 (2×), 117, 129 % of control; (T/C endpoint: median survival time, dose: 1.0 mg/kg/injection, schedule: Q01DX009 (ip), vehicle: saline, higher T/C = longer survival) 104, 110, 111, 125, 143 % of control; under setting [2], 117 % of control. Also, the survivor count runs as follows: (T/C endpoint: median survival time, dose: 1.0 mg/kg/injection, schedule: Q01DX009 (ip), vehicle: other, higher T/C = longer survival) 10 of 10; (T/C endpoint: median survival time, dose: 2.0 mg/kg/injection, schedule: Q01DX009 (ip), vehicle: other, higher T/C = longer survival) 10 of 10; under setting [2], 9 of 10 and 10 of 10; (T/C endpoint: median survival time, dose: 2.5 mg/kg/injection, schedule: Q01DX008 (ip), vehicle: saline, higher T/C = longer survival) 5 of 10; (T/C endpoint: median survival time, dose: 4.0 mg/kg/injection, schedule: Q01DX009 (ip), vehicle: saline, higher T/C = longer survival) 10 of 10; (T/C endpoint: median survival time, dose: 8.0 mg/kg/injection, schedule: Q01DX009 (ip), vehicle: saline, higher T/C = longer survival) 3 of 10.

Consider `C=CCN1/C(=C/C=C\c2sc3ccccc3[n+]2CC=C)Sc2ccccc21`, for which the T/C runs as follows: (T/C endpoint: median survival time, dose: 250.0 micrograms/kg/injection, schedule: Q01DX009 (ip), vehicle: suspension in saline, higher T/C = longer survival) 136 % of control; (T/C endpoint: median survival time, dose: 500.0 micrograms/kg/injection, schedule: Q01DX009 (ip), vehicle: suspension in saline, higher T/C = longer survival) 128 % of control; (T/C endpoint: median survival time, dose: 1000.0 micrograms/kg/injection, schedule: Q01DX009 (ip), vehicle: suspension in saline, higher T/C = longer survival) 129 % of control.

`Cn1c(=O)[nH]c2nncnc2c1=O`: the T/C (T/C endpoint: median survival time, dose: 1.56 mg/kg/injection, schedule: Q01DX009 (ip), vehicle: water, higher T/C = longer survival) is 125 and 133 % of control; the T/C (T/C endpoint: median survival time, dose: 6.25 mg/kg/injection, schedule: Q01DX009 (ip), vehicle: water, higher T/C = longer survival) is 144 % of control.

In the case of `COc1cc2c(c(OC)c1OC)-c1ccc(OC)c(=O)cc1[C@@H](NC(C)=O)CC2`, the survivor count (T/C endpoint: median survival time, dose: 1000.0 micrograms/kg/injection, schedule: Q01DX009 (ip), vehicle: saline, higher T/C = longer survival) is recorded as 10 of 10.

Turning to `O=c1[nH]c(=O)n(C2CC(O)C(CO)O2)cc1F` (configuration not stated), the T/C was 92, 102, 103, 112, 115 % of control under setting [3]; 127 % of control [5 of 6 alive] (T/C endpoint: median survival time, dose: 50.0 mg/kg/injection, schedule: Q01DX009 (ip), vehicle: saline with Tween-80, higher T/C = longer survival); 100 (2×), 105, 110, 119, 123 % of control (T/C endpoint: median survival time, dose: 50.0 mg/kg/injection, schedule: Q01DX009 (ip), vehicle: saline, higher T/C = longer survival); 97, 100 [5 of 6 alive], 105, 109, 126 % of control under setting [4]; 97 % of control under setting [5]. Further, the survivor count under setting [3] was 6 of 6; the survivor count under setting [4] was 6 of 6; the survivor count (T/C endpoint: median survival time, dose: 100.0 mg/kg/injection, schedule: Q04DX003 (ip), vehicle: saline, higher T/C = longer survival) is listed as 6 of 6; the survivor count under setting [5] is 6 of 6; the survivor count (T/C endpoint: median tumor weight (est.), dose: 200.0 mg/kg/injection, schedule: Q01DX009 (ip), vehicle: saline with Tween-80, higher T/C = larger tumour) is recorded as 3 of 6.

Take `c1ccc(-c2csc3c4ccccc4c4ccccc4[n+]23)cc1`: the T/C (T/C endpoint: median survival time, dose: 2.0 mg/kg/injection, schedule: Q01DX009 (ip), vehicle: suspension in saline, higher T/C = longer survival) is 128 % of control [9 of 10 alive] and the T/C (T/C endpoint: median survival time, dose: 4.0 mg/kg/injection, schedule: Q01DX009 (ip), vehicle: suspension in saline, higher T/C = longer survival) is 128 % of control.

`COc1cccc2c1C(=O)c1c(O)c3c(c(O)c1C2=O)CC(O)(C(=O)CO)CC3OC1CC(N)C(O)C(C)O1` (configuration not stated): the T/C was 125 % of control (T/C endpoint: median survival time, dose: 11.7 mg/kg/injection, schedule: Q01DX009 (ip), vehicle: saline, higher T/C = longer survival) and 147 % of control (T/C endpoint: median survival time, dose: 23.4 mg/kg/injection, schedule: Q01DX009 (ip), vehicle: saline, higher T/C = longer survival). Further, the survivor count (T/C endpoint: median survival time, dose: 46.8 mg/kg/injection, schedule: Q01DX009 (ip), vehicle: saline, higher T/C = longer survival) is 10 of 10.

Regarding `CCCCC[C@H](O)/C=C/[C@@H]1[C@@H](C/C=C\CCCC(=O)O)[C@@H](O)C[C@H]1O`, the T/C is 139 % of control (T/C endpoint: median survival time, dose: 10.0 mg/kg/injection, schedule: Q04DX002 (ip), vehicle: saline with Tween-80, higher T/C = longer survival); 139 % of control (T/C endpoint: median survival time, dose: 40.0 mg/kg/injection, schedule: Q04DX002 (ip), vehicle: saline with Tween-80, higher T/C = longer survival); 127 % of control (T/C endpoint: median survival time, dose: 80.0 mg/kg/injection, schedule: Q04DX002 (ip), vehicle: saline with Tween-80, higher T/C = longer survival). Moreover, the survivor count (T/C endpoint: median survival time, dose: 20.0 mg/kg/injection, schedule: Q04DX002 (ip), vehicle: saline with Tween-80, higher T/C = longer survival) is reported as 2 of 3 and the survivor count (T/C endpoint: median survival time, dose: 320.0 mg/kg/injection, schedule: Q04DX002 (ip), vehicle: saline with Tween-80, higher T/C = longer survival) is given as 0 of 3.

With `CC1(C)N=C(N)N=C(N)N1c1ccc(OCC(=O)Nc2ccc(S(=O)(=O)F)cc2)c(Cl)c1`, the T/C (T/C endpoint: median survival time, dose: 200.0 mg/kg/injection, schedule: Q04DX003 (ip), vehicle: saline, higher T/C = longer survival) is 125 % of control. In addition, where the note is “T/C endpoint: median survival time, dose: 400.0 mg/kg/injection, schedule: Q04DX003 (ip), vehicle: saline, higher T/C = longer survival”, the survivor count is 6 of 6.

In the case of `COc1cc2c(c(OC)c1OC)-c1cc3c(cc1[C@@H](OC(C)=O)[C@@H]1COC(=O)[C@H]1C2)OCO3`, the survivor count (T/C endpoint: median survival time, dose: 2.5 mg/kg/injection, schedule: Q01DX009 (ip), vehicle: Klucel (hydroxypropylcellulose) (HPC), higher T/C = longer survival) was 10 of 10.

For the compound `NC(C/[N+]([O-])=N/O)C(=O)O` (configuration not stated), the T/C runs as follows: (T/C endpoint: median survival time, dose: 19.8 mg/kg/injection, schedule: Q01DX010 (ip), vehicle: alkali diluted with saline, evaluated on day 58, higher T/C = longer survival) 141 % of control; (T/C endpoint: median survival time, dose: 19.8 mg/kg/injection, schedule: Q01DX010 (ip), vehicle: alkali diluted with saline, evaluated on day 90, higher T/C = longer survival) 148 % of control. For the same compound, the survivor count by setting is: (T/C endpoint: median survival time, dose: 60.0 mg/kg/injection, schedule: Q01DX009 (ip), vehicle: Klucel (hydroxypropylcellulose) (HPC), higher T/C = longer survival) 9 of 10; (T/C endpoint: median survival time, dose: 66.7 mg/kg/injection, schedule: Q01DX010 (ip), vehicle: alkali diluted with saline, higher T/C = longer survival) 6 of 10 on day 58; (T/C endpoint: median survival time, dose: 90.0 mg/kg/injection, schedule: Q01DX009 (ip), vehicle: Klucel (hydroxypropylcellulose) (HPC), higher T/C = longer survival) 10 of 10; (T/C endpoint: median survival time, dose: 100.0 mg/kg/injection, schedule: Q01DX010 (ip), vehicle: alkali diluted with saline, higher T/C = longer survival) 2 of 10 on day 58 and 10 of 10; (T/C endpoint: median survival time, dose: 200.0 mg/kg/injection, schedule: Q04DX003 (ip), vehicle: Klucel (hydroxypropylcellulose) (HPC), higher T/C = longer survival) 10 of 10; (T/C endpoint: median survival time, dose: 450.0 mg/kg/injection, schedule: Q04DX003 (ip), vehicle: Klucel (hydroxypropylcellulose) (HPC), higher T/C = longer survival) 10 of 10. Besides, the survivor count (T/C endpoint: median survival time, dose: 750.0 mg/kg/injection, schedule: Q01DX001 (ip), vehicle: Klucel (hydroxypropylcellulose) (HPC), higher T/C = longer survival) is listed as 6 of 10.

For the origin of these results see PubChem BioAssay AID194 (DTP/NCI, 2004).
